{"sequences": {"note": "Chains of the proteins cited; added tags and fusions are not shown. Lines headed by an entry give the natural chain unless they say otherwise; changes in a name come on top. A line that says so, or that is headed by a name, gives the form on record, which may keep a tag or linker.", "cynomolgus CD40 antigen (ACROBiosystems) (G7PG38, form named)": "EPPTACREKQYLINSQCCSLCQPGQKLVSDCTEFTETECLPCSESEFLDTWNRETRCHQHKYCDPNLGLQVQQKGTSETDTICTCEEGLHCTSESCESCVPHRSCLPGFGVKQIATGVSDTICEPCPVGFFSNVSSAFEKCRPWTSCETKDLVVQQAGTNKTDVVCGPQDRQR", "cynomolgus PD-L1 antigen (ACROBiosystems) (G7PSE7, form named)": "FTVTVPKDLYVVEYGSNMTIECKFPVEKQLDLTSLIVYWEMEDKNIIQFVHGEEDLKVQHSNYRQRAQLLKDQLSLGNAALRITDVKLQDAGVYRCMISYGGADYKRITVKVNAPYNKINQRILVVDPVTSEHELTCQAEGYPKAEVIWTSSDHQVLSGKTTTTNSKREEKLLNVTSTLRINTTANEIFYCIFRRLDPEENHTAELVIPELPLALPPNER"}, "source": "patent US20250376533A1", "binders": {"B1": {"name": "anti-PD-L1/CD40 bispecific antibody 1655 (bispecific antibody, human IgG2, kappa)", "light": "DIQMTQSPSSLSASVGDRVTITCRASQTISSYLNWYQQKPGKAPKLLIYYTSTLQSGVPSRFSGSGSGTDYTLTISSLQPEDFATYYCQQGNAYPWTFGGGTKVEIKRTVAAPSVFIFPPSDEQLKSGTASVVCLLNNFYPREAKVQWKVDNALQSGNSQESVTEQDSKDSTYSLSSTLTLSKADYEKHKVYACEVTHQGLSSPVTKSFNRGEC", "heavy": "EVQLVESGGGLVQPGGSLRLSCAASGFTFSNYYMSWVRQAPGKGLEWVGFIRNKANAYTTEYAASVKGRFTISRDNSKSTLYLQMNSLRAEDTAVYYCARYGGLKIGWYFDLWGQGTLVTVSSASTKGPSVFPLAPCSRSTSESTAALGCLVKDYFPEPVTVSWNSGALTSGVHTFPAVLQSSGLYSLSSVVTVPSSNFGTQTYTCNVDHKPSNTKVDKTVERKCCVECPPCPAPPVAGPSVFLFPPKPKDTLMISRTPEVTCVVVDVSHEDPEVQFNWYVDGVEVHNAKTKPREEQFNSTFRVVSVLTVVHQDWLNGKEYKCKVSNKGLPAPIEKTISKTKGQPREPQVYTLPPSREEMTKNQVSLTCLVKGFYPSDIAVEWESNGQPENNYKTTPPMLDSDGSFFLYSKLTVDKSRWQQGNVFSCSVMHEALHNHYTQKSLSLSPGGGGGSGGGGSGGGGSGEVQLVESGGGLVQPGGSLRLSCAASGFTFDYYTQCWFRQAPGKEREWVSCISSSEGSTYYADSVKGRFTISRDNSKNTVYLQMNSLKTEDTAVYYCAARKGGPLTIENFFDYWGQGTQVTVSS"}}, "key": {"[1]": {"molecular_target": "cynomolgus CD40 antigen (ACROBiosystems) (cynomolgus) (UniProt G7PG38)", "assay": "ELISA, coated antigen"}, "[2]": {"molecular_target": "cynomolgus PD-L1 antigen (ACROBiosystems) (cynomolgus) (UniProt G7PSE7)", "assay": "ELISA, coated antigen"}}, "note": "Results are given in words; binding and its absence hold for the method and conditions named. Some entries that bind do so weakly or less than the wild type.", "data": [{"binder": "B1", "values": [{"measurement": "binding", "setting": "[1]", "result": "binds"}, {"measurement": "binding", "setting": "[2]", "result": "binds"}]}]}
